# Some results were stated once for a whole list of compounds, not compound by compound.
# Test system: Ctenocephalides felis (Cat Flea)
# Assay: Activity in vitro against Ctenocephalides felis (cat flea), artificial blood feeding system
# Conditions: at 100 ppm; fleas fed on treated blood for 24 hours
row,SMILES,"efficacy (insecticidal activity, dead fleas)"
1,CC(O)c1cn(-c2c(Cl)cc(C(F)(F)F)cc2Cl)c2ccccc12 (stereo not drawn) [Compound 1.120],more than 80%
2,CC(O)(c1cn(-c2c(Cl)cc(C(F)(F)F)cc2Cl)c2cccc([N+](=O)[O-])c12)C(F)(F)F (stereo not drawn) [Compound 1.133],more than 80%
3,CC(O)(c1cn(-c2ccc(C#N)c(C(F)(F)F)c2)c2ccccc12)C(F)(F)F (stereo not drawn) [Compound 2.26],more than 80%
4,CC(O)(c1cn(-c2c(Cl)cc(C(F)(F)F)cc2Cl)c2cc(O)ccc12)C(F)(F)F (stereo not drawn) [Compound 1.127],more than 80%
5,COc1ccc2c(c1)c(C(C)(O)C(F)(F)F)c(C)n2-c1c(Cl)cc(C(F)(F)F)cc1Cl (stereo not drawn) [Compound 3.125],more than 80%
6,CC(O)(c1cn(-c2ccc(C#N)cc2C(F)(F)F)c2ccccc12)C(F)(F)F (stereo not drawn) [Compound 2.2],more than 80%
7,CC(O)(c1cn(-c2c(Cl)cc(C(F)(F)F)cc2Cl)c2cc3c(cc12)OCO3)C(F)(F)F (stereo not drawn) [Compound 1.103],more than 80%
8,COc1ccc2c(c(C(C)(O)C(F)(F)F)cn2-c2c(Cl)cc(C(F)(F)F)cc2Cl)c1C (stereo not drawn) [Compound 1.104],more than 80%
9,CC(O)(c1cn(-c2c(Cl)cc(C(F)(F)F)cc2Cl)c2ccc(O)cc12)C(F)(F)F (stereo not drawn) [Compound 1.129],more than 80%
10,CC(O)(c1c(C(=O)O)n(-c2c(Cl)cc(C(F)(F)F)cc2Cl)c2ccccc12)C(F)(F)F (stereo not drawn) [Compound 3.72],more than 80%
11,Cc1c(C(C)(O)C(F)(F)F)c2cc(Cl)ccc2n1-c1c(Cl)cc(C(F)(F)F)cc1Cl (stereo not drawn) [Compound 3.124],more than 80%

# Test system: Haemonchus contortus & Trichostrongylus colubriformis
# Assay: Activity in vitro against Haemonchus contortus & Trichostrongylus colubriformis (gastrointestinal nematodes), egg hatch and larval development
# Conditions: at 100 ppm; 6 days at 25° C. and 60% RH
row,SMILES,"efficacy (reduced egg hatch, reduced development of L3, or paralysis & death of larvae)"
1,C=CC(O)(c1cn(-c2c(Cl)cc(C(F)(F)F)cc2Cl)c2cc(F)ccc12)C(F)(F)F (stereo not drawn) [Compound 1.207],more than 80%
2,CC(O)(c1cn(-c2c(Cl)c(F)c(F)c(F)c2Cl)c2ccccc12)C(F)(F)F (stereo not drawn) [Compound 2.43],more than 80%
3,CC(O)C(O)(c1cn(-c2c(Cl)cc(C(F)(F)F)cc2Cl)c2ccccc12)C(F)(F)F (stereo not drawn) [Compound 1.237],more than 80%
4,Cc1cc(C)cc(-n2cc(C(C)(O)C(F)(F)F)c3ccccc32)c1 (stereo not drawn) [Compound 2.36],more than 80%
5,C=CC(O)(c1cn(-c2ncc(C(F)(F)F)cc2Cl)c2ccccc12)C(F)F (stereo not drawn) [Compound 1.224],more than 80%
6,Cc1cc(F)cc2c(C(C)(O)C(F)(F)F)cn(-c3c(Cl)cc(C(F)(F)F)cc3Cl)c12 (stereo not drawn) [Compound 1.229],more than 80%
7,CC(O)(c1cn(-c2ccc(C(F)(F)F)cn2)c2ccccc12)C(F)(F)F (stereo not drawn) [Compound 2.39],more than 80%
8,CC(O)(c1cn(-c2ccc(C#N)c(C(F)(F)F)c2)c2ccccc12)C(F)(F)F (stereo not drawn) [Compound 2.26],more than 80%
9,CNCc1c(C(C)(O)C(F)(F)F)c2ccccc2n1-c1c(Cl)cc(C(F)(F)F)cc1Cl (stereo not drawn) [Compound 3.1131],more than 80%
10,C=CC(O)(c1cn(-c2c(Cl)cc(C(F)(F)F)cc2Cl)c2ccc(F)cc12)C(F)(F)F (stereo not drawn) [Compound 1.217],more than 80%
11,C#CC(O)(c1cn(-c2c(Cl)cc(C(F)(F)F)cc2Cl)c2ccc(F)cc12)C(F)(F)F (stereo not drawn) [Compound 1.220],more than 80%
12,OCC(O)(c1cn(-c2c(Cl)cc(C(F)(F)F)cc2Cl)c2ccccc12)C(F)(F)F (stereo not drawn) [Compound 1.115],more than 80%
13,CCc1cccc2c(C(C)(O)C(F)(F)F)cn(-c3c(Cl)cc(C(F)(F)F)cc3Cl)c12 (stereo not drawn) [Compound 1.108],more than 80%
